Consider 1 substance from paper PMC9686786.

Sequences of proteins named here, by UniProt entry; tags and fusion partners are left off.
UniProt O46414: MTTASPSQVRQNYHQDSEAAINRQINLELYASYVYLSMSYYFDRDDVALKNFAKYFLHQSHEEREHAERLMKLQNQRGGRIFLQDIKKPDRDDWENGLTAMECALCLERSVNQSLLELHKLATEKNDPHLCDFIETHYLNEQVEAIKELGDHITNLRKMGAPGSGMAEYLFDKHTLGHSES

Results are given in words; binding and its absence hold for the method and conditions named. In cells and extracts the contact can be indirect. Some binding calls cover weakened binding; strength is not graded here.

The target of the assay is T1, heme oxygenase-1 (HMOX1) (bovine (endogenous in MAC-T)) (UniProt Q5E9F2).
T1 sequence: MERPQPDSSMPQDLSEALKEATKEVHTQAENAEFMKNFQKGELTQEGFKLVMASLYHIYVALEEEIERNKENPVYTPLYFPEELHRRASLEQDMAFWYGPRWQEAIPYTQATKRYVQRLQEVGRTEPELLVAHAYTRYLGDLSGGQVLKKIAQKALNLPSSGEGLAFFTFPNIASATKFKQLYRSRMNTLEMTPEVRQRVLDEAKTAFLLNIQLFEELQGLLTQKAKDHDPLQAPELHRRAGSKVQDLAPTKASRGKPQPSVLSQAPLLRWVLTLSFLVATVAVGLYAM
Description: co-IP; endogenous proteins from MAC-T cells treated with or without LPS (100 ug/mL, 24 h); Pierce Co-IP kit, Protein A/G agarose beads with anti-HMOX1, anti-FTH1 or control IgG; detected by Western blot.

Take “ferritin heavy chain 1 (FTH1) (from UniProt O46414 1-181)”: the binding result is reported as “binds”.
